Assay results from PubChem BioAssay AID493014 (National Center for Advancing Translational Sciences (NCATS), 2011).
In all, about 340,000 compounds went through this assay and about 170 (0.05%) were called active. Inconclusive results, whose numbers are uncertain, are shown with a selection of clear calls. The call rests on the fitted dose curve; in most records, active means well fitted inhibition curve with a large enough effect in the signal ratio, with a control signal flat (not every such curve was filed as active); inconclusive means small, poorly fitted or top-dose-only effect, or effect the other way, or a change in a side signal; inactive means flat fitted curve, though single readings scatter; the % refers to the signal ratio. Potencies of inconclusive entries are doubtful fits and often do not repeat.

experiment: qHTS Assay to Find Inhibitors of Chronic Active B-Cell Receptor Signaling; conditions: ABC-DLBCL IkBa-CBG/CBR reporter, luminescence ratio (green luciferase fused to IkBa over red control in TMD8 lymphoma cells), 4 h; activity change, negative = inhibition: at 46.1 µM (top of the series) unless noted;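 on activity change, negative = inhibition: plate controls were basal doxycycline-induced cells for no effect and cells given 10 µM MG132 for full effect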
In short: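 Cell line TMD8 (human ABC DLBCL), stably expressing tet-inducible CBG68-IkBa fusion and CBR; IMDM/0.5% FBS; cpd up to 46 uM; dox induction, 4 h, 37C/5% CO2; dual luminescence; green/red ratio; MG132 control.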
Potency means the concentration at half of the fitted maximal effect.

Structure (SMILES)	activity change, negative = inhibition	Potency
O=c1c2c(-c3ccccc3)csc2ncn1/N=C/c1ccc(O)c([N+](=O)[O-])c1	inconclusive: 13.9%	
Cc1ccc(NC(=O)COC(=O)C2COc3ccccc3O2)cc1 (stereo not drawn)	inactive	
COc1ccc(OC)c(C(=O)/C=C/c2cccnc2)c1		inconclusive: 17.8 µM [falling, partial curve, poor fit]
O=C(N/N=C/C(Cl)=C\c1ccccc1)c1cccs1		inconclusive: 25.1 µM [falling, single point]
O=C1c2ccccc2C(=O)N1CCCc1nc2ccccc2c(=O)n1-c1cccnc1	inconclusive: 5.55%	
COc1cc(CN2CCN(S(=O)(=O)c3ccc(NC(C)=O)cc3)CC2)cc(OC)c1O	inconclusive: 0.886%	
O=C(O)c1ccc(CNC(=O)c2ccccc2NC(=O)c2ccc([N+](=O)[O-])cc2)cc1		inconclusive: 35.5 µM [falling, single point]
COc1ccc(S(=O)(=O)N/N=C\c2ccc(OC)c(COc3ccc(C)cc3[N+](=O)[O-])c2)cc1	inconclusive: -8.73%	
COc1cc2cc(C)nc(Cc3cccc4ccccc34)c2cc1OC		inconclusive: 29.1 µM [falling, single point]
O=C(CCc1ccccc1)OCC(=O)c1ccc([N+](=O)[O-])cc1	inconclusive: -1.27%	
COc1ccccc1CCNC(=O)c1nc(-c2cccs2)no1	inactive	
COc1ccc(S(=O)(=O)N2CCCCC2)cc1NC(=O)CN(C)C1CCCCC1	inactive	
COc1ccc(C(=O)Nc2cccc(NC(=O)c3cccs3)c2)cc1OC		inconclusive: 6.31 µM [falling, partial curve]
COc1ccc(/C=C/C(=O)c2ccc([N+](=O)[O-])o2)cc1OC		inconclusive: 4.61 µM [falling, full curve, poor fit]
CN1CCN(c2ccc(Cl)cc2NC(=O)CC2OC(=O)c3ccccc32)CC1 (stereo not drawn)		inconclusive: 16.4 µM [falling, single point]
CN=C1S/C(=C\c2ccc(N3CCCC3)c(F)c2)C(=O)N1C	inactive	
CCc1cc2c(nc1CC)CCN(CC/C(C)=N/O[C@@H](C)c1cc(-c3c(C)cc(C)cc3C)no1)C2	inconclusive: -2.77%	
COc1cc2c(cc1OC)C(c1cc3cc(OC)c(OC)cc3[nH]c1=O)N(C(=O)C1CC1)CC2 (stereo not drawn)		inconclusive: 20 µM [falling, single point]
O=C(NCc1cccnc1)C(=O)Nc1nc(-c2ccccc2)cs1	inconclusive: -10.5%	
O=[N+]([O-])c1cc(S(=O)(=O)N2CCCC2)ccc1NCCCN1CCOCC1	inactive	
CC(=O)Nc1nc(C)c(-c2csc(Nc3ccccn3)n2)s1		inconclusive: 12.6 µM [falling, partial curve]
CCN(CC)S(=O)(=O)c1cccc(-c2nnc(SCc3ncc(-c4ccccc4)o3)n2C)c1		inconclusive: 12.6 µM [falling, partial curve, poor fit]
Cn1c(N)c(C(=O)CCl)c(=O)n(C)c1=O	inconclusive: 6.34%	
CCCn1nc(NC(=O)c2cccs2)c2cc3cc(OC)ccc3nc21	inconclusive: -0.546%	

3 structures already listed, ordered by heavy-atom count, rising.
Structure (SMILES)	activity change, negative = inhibition	Potency
O=C(CCc1ccccc1)OCC(=O)c1ccc([N+](=O)[O-])cc1	inconclusive: -1.27%	
O=C(NCc1cccnc1)C(=O)Nc1nc(-c2ccccc2)cs1	inconclusive: -10.5%	
COc1ccc(C(=O)Nc2cccc(NC(=O)c3cccs3)c2)cc1OC		inconclusive: 6.31 µM [falling, partial curve]

Next part

Structure (SMILES)	activity change, negative = inhibition	Potency
COc1cc2c(cc1OC)CN(CC(=O)Nc1ccc(F)cc1)C(C(=O)O)C2 (stereo not drawn)		inconclusive: 17.8 µM [falling, single point]
O=C(CNC(=O)c1cccs1)N/N=C/c1ccc(O)cc1O		inconclusive: 12.6 µM [falling, partial curve, poor fit]
CN(C1CCCCC1)S(=O)(=O)c1ccc2[nH]c(=O)oc2c1	inconclusive: 6.1%	
Cn1ncc(Cl)c1C(=O)N1CCN(c2ccc(F)cc2)CC1	inconclusive: -2.7%	
Cc1ccc(CSC2=NCCN2C(=O)c2ccc([N+](=O)[O-])cc2)cc1	inconclusive: 6.03%	
COc1ccccc1CNC(=O)c1ccccc1N		inconclusive: 9.2 µM [falling, partial curve, poor fit]
COC(=O)Cc1c(C)[nH]n(-c2cc(Cl)cc(Cl)c2)c1=O	inactive	
Cc1cc(OC(C)C(=O)NC2CCN(Cc3ccccc3)CC2)c2c(C)cc(=O)oc2c1 (stereo not drawn)	inactive	
COc1cc(/C=N\NC(=O)c2ccc(Cn3cc(Br)c([N+](=O)[O-])n3)o2)cc(OC)c1O		inconclusive: 20.6 µM [falling, partial curve, poor fit]
COc1cc(S(=O)(=O)NCCCn2ccnc2)ccc1Cl	inactive	
COC(=O)CSc1nc2ccc(C)cc2cc1C#N		inconclusive: 0.562 µM [rising, partial curve, poor fit]
COc1ccc(NC(=O)CSc2nnc(C)n2N)cc1S(=O)(=O)N1CCCCC1	inconclusive: -0.632%	
Brc1cccc(OCCN2CCc3ccccc3C2)c1	inactive	
COc1ccccc1NC(=O)CSc1nc2sc(C)c(C)c2c(=O)n1C	inactive	
O=c1c2c([N+](=O)[O-])cc([N+](=O)[O-])cc2sn1Cc1ccccc1	inconclusive: 7.19%	
O=C(NCCc1cccnc1)c1cc(COc2ccc(F)cc2Cl)on1	inconclusive: -2.9%	
O=C(Cn1nnc(-c2ccc(OCc3ccccc3F)cc2)n1)N1CCOCC1		inconclusive: 1.3 µM [falling, full curve]
CCCCn1c(=N)n(CC(=O)c2ccc([N+](=O)[O-])cc2)c2ccccc21	inconclusive: -0.812%	
COc1ccccc1NC(=O)N[C@@H](Cc1c[nH]c2ccccc12)C(=O)NN	inactive	
Cc1cc(C)nc(Sc2ccc(/C=C(\C#N)C(=O)Nc3ccccc3)o2)n1		inconclusive: 29.1 µM [falling, single point]
CCC(=O)N1CCC2(CC1)Oc1ccc(F)cc1C(=O)C21CC(c2ccc(Cl)cc2)=NO1 (stereo not drawn)	inconclusive: -22%	
Cc1cc(-c2csc(NC(=O)c3cc4ccccc4o3)n2)c(C)n1C		inconclusive: 18.4 µM [falling, single point]
O=C(COc1ccc(Cl)cc1Br)Nc1ccncc1	inconclusive: 5.91%	
Cc1occc1C(=O)Nc1c(F)c(F)c(F)c(F)c1F	inconclusive: -21%	
